Test results as given in the supplement of paper PMC10849652.
Some of the results follow. Residues, ends and D or L forms follow the SMILES beside them. *: point of attachment. Cbz = O=C(OCc1ccccc1)*

Amino acid sequences for entries named in this document (tags omitted). A change or cut given only in a name is not applied to a line headed by its entry.
UniProt P29218: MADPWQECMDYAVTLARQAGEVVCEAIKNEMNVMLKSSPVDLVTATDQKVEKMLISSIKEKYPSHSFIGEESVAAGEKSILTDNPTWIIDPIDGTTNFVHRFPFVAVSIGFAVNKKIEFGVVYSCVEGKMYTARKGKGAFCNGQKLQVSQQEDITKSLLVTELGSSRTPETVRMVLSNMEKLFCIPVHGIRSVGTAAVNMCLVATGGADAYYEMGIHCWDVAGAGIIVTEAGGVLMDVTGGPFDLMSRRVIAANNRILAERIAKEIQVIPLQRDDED
UniProt Q9NV31: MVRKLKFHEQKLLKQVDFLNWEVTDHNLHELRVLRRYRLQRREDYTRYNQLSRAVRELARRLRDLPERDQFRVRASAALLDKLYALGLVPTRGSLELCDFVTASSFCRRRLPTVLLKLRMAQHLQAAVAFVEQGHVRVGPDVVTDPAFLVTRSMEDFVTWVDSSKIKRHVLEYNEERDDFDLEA
UniProt P53990, whole entry, looked up: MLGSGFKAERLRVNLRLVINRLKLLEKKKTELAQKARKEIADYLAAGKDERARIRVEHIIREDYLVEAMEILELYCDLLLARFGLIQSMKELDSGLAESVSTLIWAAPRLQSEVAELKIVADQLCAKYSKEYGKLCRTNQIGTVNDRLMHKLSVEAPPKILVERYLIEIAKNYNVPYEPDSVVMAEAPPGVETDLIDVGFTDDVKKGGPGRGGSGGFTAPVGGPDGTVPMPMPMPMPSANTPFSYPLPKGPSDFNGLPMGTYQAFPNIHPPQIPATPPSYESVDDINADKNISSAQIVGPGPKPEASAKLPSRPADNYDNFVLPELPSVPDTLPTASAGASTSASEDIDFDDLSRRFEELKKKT
UniProt Q9NZI8, whole entry, looked up: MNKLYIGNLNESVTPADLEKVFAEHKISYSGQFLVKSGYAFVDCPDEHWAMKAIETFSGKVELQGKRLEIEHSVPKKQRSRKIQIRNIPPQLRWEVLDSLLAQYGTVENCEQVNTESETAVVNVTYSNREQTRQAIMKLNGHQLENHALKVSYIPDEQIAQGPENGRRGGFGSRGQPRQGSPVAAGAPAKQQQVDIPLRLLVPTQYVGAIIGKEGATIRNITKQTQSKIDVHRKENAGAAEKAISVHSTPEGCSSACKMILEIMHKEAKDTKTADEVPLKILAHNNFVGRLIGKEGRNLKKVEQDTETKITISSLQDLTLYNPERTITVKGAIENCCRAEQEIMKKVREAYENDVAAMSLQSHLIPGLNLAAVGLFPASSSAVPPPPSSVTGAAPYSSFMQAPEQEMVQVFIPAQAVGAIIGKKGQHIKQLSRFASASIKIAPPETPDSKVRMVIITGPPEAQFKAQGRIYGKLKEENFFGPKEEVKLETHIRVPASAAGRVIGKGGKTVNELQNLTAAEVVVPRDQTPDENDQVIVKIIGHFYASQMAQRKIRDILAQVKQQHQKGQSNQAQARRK
UniProt O15357: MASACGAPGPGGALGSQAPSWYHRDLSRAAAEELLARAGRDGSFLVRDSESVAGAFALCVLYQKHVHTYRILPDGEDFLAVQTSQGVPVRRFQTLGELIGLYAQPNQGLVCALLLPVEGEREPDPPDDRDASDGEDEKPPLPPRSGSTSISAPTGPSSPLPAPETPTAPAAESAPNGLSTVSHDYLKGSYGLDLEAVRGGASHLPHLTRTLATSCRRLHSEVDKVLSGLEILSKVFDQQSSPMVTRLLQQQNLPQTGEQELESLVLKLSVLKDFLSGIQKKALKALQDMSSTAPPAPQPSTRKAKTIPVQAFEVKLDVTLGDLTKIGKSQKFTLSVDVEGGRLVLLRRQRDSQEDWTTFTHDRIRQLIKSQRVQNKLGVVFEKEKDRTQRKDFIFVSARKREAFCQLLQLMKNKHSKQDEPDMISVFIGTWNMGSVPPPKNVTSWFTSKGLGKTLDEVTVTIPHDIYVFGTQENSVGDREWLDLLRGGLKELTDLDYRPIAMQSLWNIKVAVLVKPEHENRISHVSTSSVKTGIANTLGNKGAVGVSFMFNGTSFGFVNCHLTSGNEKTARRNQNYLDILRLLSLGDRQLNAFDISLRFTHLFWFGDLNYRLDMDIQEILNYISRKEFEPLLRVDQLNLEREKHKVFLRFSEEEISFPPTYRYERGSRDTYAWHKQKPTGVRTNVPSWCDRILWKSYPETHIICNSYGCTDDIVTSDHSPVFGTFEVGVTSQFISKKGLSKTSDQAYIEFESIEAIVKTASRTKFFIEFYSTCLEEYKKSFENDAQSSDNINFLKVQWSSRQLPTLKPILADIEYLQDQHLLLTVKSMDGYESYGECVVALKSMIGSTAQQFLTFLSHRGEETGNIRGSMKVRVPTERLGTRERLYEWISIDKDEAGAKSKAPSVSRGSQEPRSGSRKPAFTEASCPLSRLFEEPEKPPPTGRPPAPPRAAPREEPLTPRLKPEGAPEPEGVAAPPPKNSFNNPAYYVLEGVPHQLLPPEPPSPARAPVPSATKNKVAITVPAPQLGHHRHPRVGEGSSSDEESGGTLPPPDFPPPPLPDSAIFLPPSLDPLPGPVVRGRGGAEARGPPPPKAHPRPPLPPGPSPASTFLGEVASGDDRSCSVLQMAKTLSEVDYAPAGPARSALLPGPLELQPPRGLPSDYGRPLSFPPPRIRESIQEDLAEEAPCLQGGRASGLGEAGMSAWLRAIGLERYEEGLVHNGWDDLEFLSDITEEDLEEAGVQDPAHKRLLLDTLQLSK
UniProt Q68E01, whole entry, looked up: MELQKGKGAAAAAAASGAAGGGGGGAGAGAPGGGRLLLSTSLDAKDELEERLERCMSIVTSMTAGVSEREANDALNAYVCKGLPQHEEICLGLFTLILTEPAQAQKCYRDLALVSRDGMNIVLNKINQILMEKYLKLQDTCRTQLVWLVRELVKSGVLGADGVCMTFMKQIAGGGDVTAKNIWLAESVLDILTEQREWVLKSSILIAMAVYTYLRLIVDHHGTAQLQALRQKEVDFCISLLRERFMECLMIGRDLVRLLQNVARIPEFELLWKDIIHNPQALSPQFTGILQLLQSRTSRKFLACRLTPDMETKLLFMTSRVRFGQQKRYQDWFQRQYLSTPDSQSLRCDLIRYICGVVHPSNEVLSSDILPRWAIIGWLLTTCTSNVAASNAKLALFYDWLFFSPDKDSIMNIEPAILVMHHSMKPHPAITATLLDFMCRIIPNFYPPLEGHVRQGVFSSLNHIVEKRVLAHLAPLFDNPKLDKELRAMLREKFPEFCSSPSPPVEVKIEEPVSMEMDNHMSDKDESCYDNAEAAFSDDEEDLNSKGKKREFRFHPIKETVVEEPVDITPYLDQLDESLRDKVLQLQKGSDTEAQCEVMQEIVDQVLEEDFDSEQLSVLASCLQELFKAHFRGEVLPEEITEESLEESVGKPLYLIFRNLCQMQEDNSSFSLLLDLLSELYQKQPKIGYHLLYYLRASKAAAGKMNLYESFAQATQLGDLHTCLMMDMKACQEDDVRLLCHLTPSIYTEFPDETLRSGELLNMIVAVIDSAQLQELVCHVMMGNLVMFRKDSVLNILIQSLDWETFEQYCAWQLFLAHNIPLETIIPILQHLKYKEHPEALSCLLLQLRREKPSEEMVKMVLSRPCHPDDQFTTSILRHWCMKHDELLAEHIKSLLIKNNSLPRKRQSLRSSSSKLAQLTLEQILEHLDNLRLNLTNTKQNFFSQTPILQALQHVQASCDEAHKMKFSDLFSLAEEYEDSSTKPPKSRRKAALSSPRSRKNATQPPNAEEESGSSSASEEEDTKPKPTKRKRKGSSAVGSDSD
UniProt Q13576: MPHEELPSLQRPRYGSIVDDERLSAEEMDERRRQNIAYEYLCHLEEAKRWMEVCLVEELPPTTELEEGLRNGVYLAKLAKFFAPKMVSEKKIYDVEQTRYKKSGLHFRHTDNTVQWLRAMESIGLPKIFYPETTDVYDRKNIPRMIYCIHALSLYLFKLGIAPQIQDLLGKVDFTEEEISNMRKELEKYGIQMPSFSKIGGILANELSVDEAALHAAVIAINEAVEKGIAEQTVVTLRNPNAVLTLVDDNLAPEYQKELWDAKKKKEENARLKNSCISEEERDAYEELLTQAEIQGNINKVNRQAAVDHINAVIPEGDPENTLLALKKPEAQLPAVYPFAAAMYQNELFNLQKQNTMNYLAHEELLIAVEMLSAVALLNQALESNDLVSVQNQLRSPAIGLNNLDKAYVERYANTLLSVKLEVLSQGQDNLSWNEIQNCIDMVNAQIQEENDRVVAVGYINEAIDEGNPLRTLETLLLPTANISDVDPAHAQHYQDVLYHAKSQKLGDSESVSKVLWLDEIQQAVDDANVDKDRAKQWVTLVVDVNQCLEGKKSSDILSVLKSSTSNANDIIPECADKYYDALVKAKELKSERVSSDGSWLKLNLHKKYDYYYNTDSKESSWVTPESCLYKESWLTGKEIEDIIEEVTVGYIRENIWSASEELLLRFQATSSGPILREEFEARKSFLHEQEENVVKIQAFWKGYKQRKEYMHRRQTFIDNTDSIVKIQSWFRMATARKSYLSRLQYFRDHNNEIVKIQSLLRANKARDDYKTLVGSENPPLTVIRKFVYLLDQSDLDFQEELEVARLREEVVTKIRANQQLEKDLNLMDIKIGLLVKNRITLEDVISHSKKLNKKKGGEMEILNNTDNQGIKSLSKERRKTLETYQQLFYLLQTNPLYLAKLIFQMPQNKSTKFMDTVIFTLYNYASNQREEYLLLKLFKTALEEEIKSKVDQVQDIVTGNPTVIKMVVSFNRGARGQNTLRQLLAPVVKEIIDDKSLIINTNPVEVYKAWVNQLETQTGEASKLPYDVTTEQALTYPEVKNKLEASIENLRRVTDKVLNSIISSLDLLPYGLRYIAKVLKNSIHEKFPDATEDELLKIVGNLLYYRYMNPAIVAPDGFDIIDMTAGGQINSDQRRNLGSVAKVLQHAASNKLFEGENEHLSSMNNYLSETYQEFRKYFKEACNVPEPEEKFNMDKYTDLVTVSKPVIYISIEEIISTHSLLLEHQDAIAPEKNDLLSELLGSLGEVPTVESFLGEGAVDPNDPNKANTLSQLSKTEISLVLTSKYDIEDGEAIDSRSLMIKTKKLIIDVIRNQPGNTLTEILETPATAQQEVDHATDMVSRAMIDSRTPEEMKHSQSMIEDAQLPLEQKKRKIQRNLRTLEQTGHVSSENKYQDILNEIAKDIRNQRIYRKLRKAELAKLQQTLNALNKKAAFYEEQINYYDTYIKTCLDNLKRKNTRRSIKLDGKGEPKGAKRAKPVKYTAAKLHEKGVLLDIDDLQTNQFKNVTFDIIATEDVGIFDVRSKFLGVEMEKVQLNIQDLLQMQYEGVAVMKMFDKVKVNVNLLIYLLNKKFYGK
UniProt Q9NVM9, whole entry, looked up: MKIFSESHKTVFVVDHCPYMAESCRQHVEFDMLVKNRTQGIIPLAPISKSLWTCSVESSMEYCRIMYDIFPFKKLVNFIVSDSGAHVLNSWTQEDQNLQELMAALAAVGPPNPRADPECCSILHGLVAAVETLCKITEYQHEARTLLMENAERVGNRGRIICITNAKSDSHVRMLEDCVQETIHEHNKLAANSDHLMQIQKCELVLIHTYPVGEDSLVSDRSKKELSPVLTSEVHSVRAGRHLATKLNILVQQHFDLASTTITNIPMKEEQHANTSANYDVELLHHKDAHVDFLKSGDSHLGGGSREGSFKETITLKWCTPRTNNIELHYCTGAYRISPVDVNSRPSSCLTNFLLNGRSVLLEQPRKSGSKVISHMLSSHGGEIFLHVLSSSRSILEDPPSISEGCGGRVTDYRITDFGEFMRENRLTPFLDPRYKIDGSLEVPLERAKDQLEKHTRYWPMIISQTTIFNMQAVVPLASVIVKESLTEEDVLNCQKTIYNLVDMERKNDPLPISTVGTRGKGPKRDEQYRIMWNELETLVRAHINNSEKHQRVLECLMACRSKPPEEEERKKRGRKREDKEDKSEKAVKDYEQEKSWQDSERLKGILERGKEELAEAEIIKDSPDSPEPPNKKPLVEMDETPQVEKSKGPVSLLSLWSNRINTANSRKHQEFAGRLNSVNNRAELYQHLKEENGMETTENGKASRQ
UniProt P20839, whole entry, looked up: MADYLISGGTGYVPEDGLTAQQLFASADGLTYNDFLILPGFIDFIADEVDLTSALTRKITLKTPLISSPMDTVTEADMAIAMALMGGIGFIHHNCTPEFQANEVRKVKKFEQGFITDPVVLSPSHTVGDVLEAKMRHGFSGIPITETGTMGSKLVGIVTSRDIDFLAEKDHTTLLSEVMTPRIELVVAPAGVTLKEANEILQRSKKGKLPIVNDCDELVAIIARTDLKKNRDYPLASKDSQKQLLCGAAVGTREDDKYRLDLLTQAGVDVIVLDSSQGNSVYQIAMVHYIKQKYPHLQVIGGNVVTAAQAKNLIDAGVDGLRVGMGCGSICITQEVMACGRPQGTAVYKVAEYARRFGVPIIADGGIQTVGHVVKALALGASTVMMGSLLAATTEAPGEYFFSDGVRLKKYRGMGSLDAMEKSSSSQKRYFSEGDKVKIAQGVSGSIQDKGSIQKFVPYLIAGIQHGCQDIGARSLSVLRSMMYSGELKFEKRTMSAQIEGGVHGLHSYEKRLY

What was measured:
Test in all cases: log2 fold change, soluble protein after heating vs DMSO (PISA); higher = thermal stabilisation; K562 cells, 10 uM, 30 min; active = over 0.2 and 3.5 SD of the protein, either way, in both replicates (recomputed)
[1] = compound: C#Cc1cccc(Nc2ncnc3cc(OCCOC)c(OCCOC)cc23)c1 [erlotinib]
Summary of the method: (§1)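 Aliquots of K562 cells (2×10^6 cells/mL) treated with 10 μM compound for 30 min were heated for 3 min over 48°C-58°C. After pooling and extraction in PBS with 0.5% NP-40 at 4°C, soluble protein from a 21,000xg, 90 min spin was quantified by TMTpro 16plex LC-MS/MS with channel sums equalised. Thermal stability is expressed against control samples, from duplicates, as a log2 fold change.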

[2] = compound: C/C(=N\NC(=O)C1=CC(=CC=C1)S(=O)(=O)N2CCOCC2)/C3=C(C=CC(=C3)Cl)O
Summary of the method: as §1

[3] = compound: C1=CC(=C(C=C1Cl)C2=NC3=NC=CN=C3C(=N2)NC4=CC=NC=C4)F
Summary of the method: as §1

[4] = compound: C1=CC(=CC=C1C2=NC3=C(N2)C=C(C=C3)C(=O)N)OC4=CC=C(C=C4)Cl
Summary of the method: as §1

[5] = compound: C1=CC2=C(C=CC(=C2)/C=C\3/C(=O)NC(=NCC4=CC=CS4)S3)N=C1
Summary of the method: as §1

[6] = compound: C1=CC2=NC=CN=C2C=C1/C=C/3\C(=O)NC(=O)S3
Summary of the method: as §1

[7] = compound: C1=CC=C(C=C1)C2=NC(=C(N2)C3=CC=NC=C3)C4=CC(=C(C=C4)Cl)O
Summary of the method: as §1

[8] = compound: C1=CC=C2C(=C1)C3=NNC4=CC=CC(=C43)C2=O
Summary of the method: as §1

[9] = compound: C1CCN(C1)C(=O)NC2=CC=CC(=C2)NC3=NC=C(C(=N3)NCCC4=CN=CN4)Br
Summary of the method: as §1

[10] = compound: C1CN(CCC1(CC2=CC=C(C=C2)Cl)N)C3=NC=NC4=C3C=CN4
Summary of the method: as §1

[11] = compound: C1COCCN1CCN2C3=CC=CC=C3N=C2NC(=O)C4=CC(=CC=C4)[N+](=O)[O-] [IRAK-1-4 Inhibitor I]
Summary of the method: as §1

[12] = compound: C=CC(=O)N1CCC[C@@H](n2nc(-c3ccc(Oc4ccccc4)cc3)c3c(N)ncnc32)C1 [ibrutinib]
Summary of the method: as §1

[13] = compound: CC(=O)c1cnc2ccc(-c3cc(Cl)c(O)c(Cl)c3)nc2c1N[C@H]1CC[C@H](CN(C)C)CC1
Summary of the method: as §1

[14] = compound: CC(C)(C)Cn1c(N)nc2ccc(-c3[nH]c(C(C)(C)C)nc3-c3ccc(F)cc3)nc21 [ralimetinib]
Summary of the method: as §1

[15] = compound: CC(C)(O)CC(=O)NCCn1ccc2ncnc(Nc3ccc(Oc4cccc(C(F)(F)F)c4)c(Cl)c3)c21
Summary of the method: as §1

[16] = compound: CC(C)C1=C2N=C(C=C(N2N=C1)NCC3=CC=CC=C3)NCCCCCCN
Summary of the method: as §1

[17] = compound: CC(C)C[C@@H](C=O)NC(=O)[C@H](CC(C)C)NC(=O)[C@H](CC(C)C)NC(=O)OCc1ccccc1
Summary of the method: as §1

[18] = compound: CC(C)N(C[C@H]1O[C@@H](n2cnc3c(N)ncnc32)[C@H](O)[C@@H]1O)[C@H]1C[C@@H](CCc2nc3cc(C(C)(C)C)ccc3[nH]2)C1 [pinometostat]
Summary of the method: as §1

[19] = compound: CC1=C(C(CC(=O)N1)C2=CC=C(C=C2)C(F)(F)F)C(=O)NC3=C(C=C4C(=C3)C=NN4)F
Summary of the method: as §1

[20] = compound: CC1=C(C2=C(C=C1)C(=O)C3=CC=CC=C3N2CCCN)C
Summary of the method: as §1

Measured: log2 fold change

IMMP2L (UniProt Q96T52)
inactive: [1] 0.013 | [2] -0.046 | [3] 0.031 | [4] -0.029 | [5] 0.023 | [6] 0.129 | [7] -0.01 | [8] 0.028 | [9] -0.026 | [10] 0.055 | [11] 0.002 | [12] 0.002 | [13] 0.033 | [14] 0.02 | [15] -0.029 | [16] 0.013 | [17] -0.038 | [18] -0.025 | [19] -0.088 | [20] 0.001

IMPA1 isoform 3 (UniProt P29218)
inactive: [1] 0.005 | [2] 0.006 | [3] 0.038 | [4] 0.019 | [5] -0.001 | [6] 0.006 | [7] -0.047 | [8] -0.045 | [9] 0.001 | [10] 0.059 | [11] 0.042 | [12] 0.008 | [13] -0.004 | [14] -0.061 | [15] -0.005 | [16] 0.088 | [17] -0.043 | [18] -0.038 | [19] 0.056 | [20] 0.023

IMP3 (UniProt Q9NV31)
inactive: [1] 0.197 | [2] -0.232 | [3] 0.06 | [4] -0.208 | [5] -0.13 | [6] -0.125 | [7] -0.169 | [8] 0.102 | [9] -0.136 | [10] 0.437 | [11] -0.417 | [12] 0.314 | [13] -0.01 | [14] 0.004 | [15] -0.133 | [16] 0.1 | [17] -0.063 | [18] 0.57 | [19] -0.068 | [20] 0.088

IKBIP (UniProt Q70UQ0)
inactive: [1] -0.057 | [2] 0.033 | [3] -0.014 | [4] -0.001 | [5] 0.072 | [6] -0.012 | [7] -0.042 | [8] -0.039 | [9] 0.03 | [10] -0.005 | [11] 0.018 | [12] 0.006 | [13] -0.031 | [14] 0.005 | [15] 0.008 | [16] 0.001 | [17] -0.006 | [18] 0.033 | [19] -0.005 | [20] 0.032

IST1 isoform 5 (UniProt P53990)
inactive: [1] 0.019 | [2] 0.067 | [3] 0.081 | [4] -0.014 | [5] 0.02 | [6] 0.035 | [7] -0.053 | [8] 0.002 | [9] 0.016 | [10] -0.061 | [11] 0.017 | [12] -0.015 | [13] -0.011 | [14] 0.008 | [15] -0.118 | [16] -0.169 | [17] 0.035 | [18] 0.005 | [19] 0.103 | [20] 0.068

ITIH3 (UniProt Q06033)
inactive: [1] -0.349 | [2] -0.198 | [3] 0.03 | [4] 0.109 | [5] 0.067 | [6] -0.034 | [7] -0.121 | [8] -0.201 | [9] 0.13 | [10] 0.221 | [11] -0.073 | [12] 0.27 | [13] 0.141 | [14] -0.045 | [15] 0.196 | [16] 0.236 | [17] 0.033 | [18] -0.136 | [19] -0.006 | [20] -0.158

INTS4 (UniProt Q96HW7)
inactive: [1] 0.036 | [2] 0.052 | [3] 0.032 | [4] 0.039 | [5] 0.07 | [6] 0.018 | [7] 0.04 | [8] -0.002 | [9] -0.047 | [10] 0.028 | [11] 0.002 | [12] -0.007 | [13] -0.017 | [14] -0.014 | [15] -0.041 | [16] 0.04 | [17] -0.033 | [18] -0.011 | [19] 0.031 | [20] 0.099

ITPA (UniProt Q9BY32)
inactive: [1] 0.061 | [2] 0.035 | [3] -0.01 | [4] 0.009 | [5] 0.014 | [6] -0.018 | [7] 0.065 | [8] -0.005 | [9] -0.024 | [10] 0.042 | [11] 0.042 | [12] 0.055 | [13] -0.015 | [14] -0.004 | [15] -0.024 | [16] 0.053 | [17] -0.048 | [18] -0.055 | [19] 0.007 | [20] 0.042

IGF2BP1 (UniProt Q9NZI8)
inactive: [1] -0.049 | [2] -0.024 | [3] -0.463 | [4] 0.046 | [5] 0.013 | [6] -0.01 | [7] -0.101 | [8] -0.003 | [9] 0.037 | [10] -0.008 | [11] -0.269 | [12] 0.061 | [13] -0.008 | [14] 0.189 | [15] 0.066 | [16] -0.307 | [17] 0.127 | [18] 0.333 | [19] 0.021 | [20] -0.448

INPPL1 (UniProt O15357)
inactive: [1] 0.165 | [2] 0.093 | [3] -0.165 | [4] -0.076 | [5] 0.064 | [6] 0.148 | [7] 0.063 | [8] -0.053 | [9] 0.056 | [10] -0.037 | [11] -0.037 | [12] -0.064 | [13] -0.213 | [14] -0.002 | [15] 0.012 | [16] -0.162 | [17] -0.008 | [18] 0.152 | [19] 0.121 | [20] -0.014

INTS3 (UniProt Q68E01)
inactive: [1] 0.024 | [2] 0.109 | [3] -0.037 | [4] -0.085 | [5] 0.187 | [6] 0.028 | [7] -0.039 | [8] 0.033 | [9] -0.023 | [10] -0.099 | [11] -0.019 | [12] 0.001 | [13] 0.187 | [14] -0.032 | [15] -0.045 | [16] -0.095 | [17] 0.107 | [18] 0.014 | [19] 0.054 | [20] 0.052

IKBIP isoform 4 (UniProt Q70UQ0)
inactive: [1] 0.009 | [2] -0.027 | [3] -0.013 | [4] 0.008 | [5] 0 | [6] 0.028 | [7] -0.054 | [8] -0.031 | [9] -0.003 | [10] -0.013 | [11] -0.006 | [12] -0.008 | [13] -0.008 | [14] -0.004 | [15] 0.036 | [16] -0.048 | [17] -0.075 | [18] -0.013 | [19] 0.03 | [20] -0.026

IQGAP2 (UniProt Q13576)
inactive: [1] 0.195 | [2] 0.139 | [3] -0.042 | [4] -0.005 | [5] 0.024 | [6] -0.015 | [7] 0.029 | [8] -0.05 | [9] -0.078 | [10] -0.14 | [11] -0.083 | [12] -0.071 | [13] -0.206 | [14] 0.027 | [15] -0.154 | [16] -0.319 | [17] 0.06 | [18] 0.145 | [19] -0.036 | [20] -0.01

Two consecutive records from above, for reference:
IST1 isoform 5 (UniProt P53990)
inactive: [1] 0.019 | [2] 0.067 | [3] 0.081 | [4] -0.014 | [5] 0.02 | [6] 0.035 | [7] -0.053 | [8] 0.002 | [9] 0.016 | [10] -0.061 | [11] 0.017 | [12] -0.015 | [13] -0.011 | [14] 0.008 | [15] -0.118 | [16] -0.169 | [17] 0.035 | [18] 0.005 | [19] 0.103 | [20] 0.068

ITIH3 (UniProt Q06033)
inactive: [1] -0.349 | [2] -0.198 | [3] 0.03 | [4] 0.109 | [5] 0.067 | [6] -0.034 | [7] -0.121 | [8] -0.201 | [9] 0.13 | [10] 0.221 | [11] -0.073 | [12] 0.27 | [13] 0.141 | [14] -0.045 | [15] 0.196 | [16] 0.236 | [17] 0.033 | [18] -0.136 | [19] -0.006 | [20] -0.158

Going on with the list.

IDH3G (UniProt P51553)
inactive: [1] 0.014 | [2] 0 | [3] 0.088 | [4] -0.007 | [5] 0.028 | [6] 0.013 | [7] -0.022 | [8] 0.039 | [9] 0.031 | [10] 0.08 | [11] 0.037 | [12] -0.027 | [13] -0.006 | [14] -0.034 | [15] -0.011 | [16] 0.025 | [17] -0.033 | [18] -0.042 | [19] -0.035 | [20] 0

INTS13 (UniProt Q9NVM9)
inactive: [1] 0.009 | [2] 0.02 | [3] 0.061 | [4] 0.057 | [5] 0.056 | [6] -0.011 | [7] -0.035 | [8] 0.01 | [9] -0.009 | [10] 0.041 | [11] -0.001 | [12] 0.023 | [13] -0.101 | [14] -0.065 | [15] -0.094 | [16] -0.142 | [17] 0.001 | [18] -0.019 | [19] -0.037 | [20] 0.095

IMPDH1 isoform 6 (UniProt P20839)
inactive: [1] -0.109 | [2] -0.08 | [3] -0.071 | [4] 0.006 | [5] -0.024 | [6] -0.01 | [7] -0.048 | [8] 0.026 | [9] -0.007 | [10] -0.029 | [11] -0.062 | [12] -0.013 | [13] 0.024 | [14] 0 | [15] 0.048 | [16] 0.018 | [17] 0.004 | [18] 0.028 | [19] 0.062 | [20] -0.014
